Results reported in PubChem BioAssay AID504467 (National Center for Advancing Translational Sciences (NCATS), 2011).
Among all 330,000 compounds or so, about 7,700 (2.3%) were called active. This list was built around the results that the source calls inconclusive (neither active nor inactive); the mix of calls is not that of the screen. The call rests on the fitted dose curve; in most records, active means well fitted inhibition curve with a large enough effect; inconclusive means small, poorly fitted or top-dose-only effect, or effect the other way; inactive means flat fitted curve, though single readings scatter. A potency beside an inconclusive call is a rough fit, not a confirmed value.

test: qHTS screen for small molecules that inhibit ELG1-dependent DNA repair in human embryonic kidney (HEK293T) cells expressing luciferase-tagged ELG1; conditions: HEK293T ELG1-luciferase reporter, luminescence, 16 h, DNA damage induced by 5-fluorouridine; activity change, negative = inhibition: at 46.1 µM (top of the series); further: nearly all actives have a fitted effect of over 55% in size
Method in brief: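 Cells (2,000 per well) received 5-fluorouridine plus test compound or DMSO and were incubated 16 hr at 37 °C, 5% CO2. Luciferase activity was read by luminescence 30 min after ONE-Glo addition; signal suppression marked inhibition of damage-induced ELG1 function.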
On the % scale 0 is the no-effect control and ±100 the full control effect; potency means the concentration at half of the fitted maximal effect.

Compound	activity change, negative = inhibition	Potency
CC1CN=C(N(C(=S)Nc2ccccc2)c2cccc(C(F)(F)F)c2)S1 (stereo unspecified)	inactive: -16.1%	
CCn1c(=O)n(CC)c2cc(N3CCCC3)c(NC(=O)c3cccc(C)c3)cc21	inactive: -2.19%	
CCc1ccc(Nc2n[n+](C)c(-c3ccc(C(=O)O)cc3)s2)cc1	inactive: 12.9%	
COc1cc2c(C#N)c(N3CCN(c4ccccc4OC)CC3)nc(N)c2c(N)n1		active: 9.2 µM
CCN(C(=O)COC(=O)c1c(C)nn(-c2ccccc2)c1C)C1CCS(=O)(=O)C1 (stereo unspecified)		inconclusive: 18.3 µM [activator, partial curve]
CCSc1ccc(C(=O)Nc2ccc(Br)cn2)cc1[N+](=O)[O-]		inconclusive: 29.1 µM [activator, single point]
CCc1sc(C(=O)Nc2cccnc2)cc1Br		inconclusive: 10.3 µM [activator, partial curve, poor fit]
N#Cc1nc(COc2ccc(Cl)cc2)oc1N1CCN(Cc2ccccc2)CC1		inconclusive: 8.2 µM [inhibitor, partial curve]
CCCOC(=O)c1cc(NC(=O)/C=C/c2ccccc2)ccc1O		inconclusive: 23.1 µM [inhibitor, single point]
CCN(CCCNC(=O)C1CCCN(S(=O)(=O)CC)C1)c1cccc(C)c1 (stereo unspecified)	inactive: -6.2%	
Cc1ccc(OCC(=O)Nc2cc(S(=O)(=O)N3CCOCC3)ccc2N2CCCC2)cc1		inconclusive: 29.1 µM [inhibitor, single point]
C/C(=C\C(=O)c1ccccc1)Nc1ccc2c(c1)OCO2		inconclusive: 9.2 µM [activator, partial curve]
Cc1ccc(C)c(N2CCN(C(=O)Cc3ccc(-n4c(=O)[nH]c5ccsc5c4=O)cc3)CC2)c1		inconclusive: 23.1 µM [inhibitor, partial curve]
O=C(NCCCCNC(=O)c1ccc(Br)s1)c1ccc(Br)s1		inconclusive: 20.6 µM [activator, single point]
Cc1ccc(C(=O)C(C)OC(=O)Cc2n[nH]c(=O)c3ccccc23)cc1 (stereo unspecified)	inactive: -26.6%	
O=C(/C=C/c1ccccc1Cl)NCCc1ccccc1		inconclusive: 5.8 µM [activator, partial curve]
COc1nc(NC(C)C)nc(N(C#N)CN2C(=O)c3ccccc3S2(=O)=O)n1	inactive: 10.1%	
Cc1ccc(NS(=O)(=O)c2ccc(C)c(NC(=O)COc3ccccc3)c2)c(C)c1		inconclusive: 20.6 µM [inhibitor, single point]
COc1ccc(Oc2cn[nH]c2-c2ccc(O)cc2O)cc1		inconclusive: 16.4 µM [inhibitor, single point]
Cc1ccc(C(=O)Nc2ccccc2N2CCN(C(=O)C(C)C)CC2)cc1		inconclusive: 20.6 µM [inhibitor, single point]
CCOC(=O)Cc1csc(NC(=O)CCCC(=O)O)n1	inactive: 14%	
COc1ccc(Br)cc1/C=N/NC(=O)Cn1nnnc1N	inactive: -2%	
Cc1ccccc1-n1nc(CSc2nc3ccccc3[nH]2)c(-c2ccccc2)c1N		inconclusive: 20.6 µM [inhibitor, single point]

3 structures already listed, ordered by molecular weight, high to low.
Compound	activity change, negative = inhibition	Potency
CCn1c(=O)n(CC)c2cc(N3CCCC3)c(NC(=O)c3cccc(C)c3)cc21	inactive: -2.19%	
COc1ccc(Br)cc1/C=N/NC(=O)Cn1nnnc1N	inactive: -2%	
O=C(/C=C/c1ccccc1Cl)NCCc1ccccc1		inconclusive: 5.8 µM [activator, partial curve]

Further results:

Compound	activity change, negative = inhibition	Potency
COc1ccc(C)cc1-n1nnnc1SCC1CCCO1 (stereo unspecified)	inactive: 3.77%	
CCn1nnnc1SCC(=O)NCc1ccc2c(c1)OCO2		inconclusive: 25.9 µM [activator, single point]
COc1ccc2c(=O)c3c(=O)n(Cc4ccco4)c(-c4ccc(C)cc4)nc3oc2c1		inconclusive: 32.6 µM [inhibitor, partial curve, poor fit]
CCOC(=O)CCSc1nc(C)c2ccccc2n1		inconclusive: 16.4 µM [activator, partial curve, poor fit]
Cc1nn(Cc2nc(-c3cccs3)no2)c(C)c1Br		inconclusive: 18.4 µM [activator, single point]
O=C(N/N=C/C(Cl)=C/c1ccccc1)c1ccccn1		inconclusive: 7.3 µM [activator, partial curve]
COCCNCCCCSc1ccc(Cl)cc1	inactive: -0.283%	
S=C(NCc1ccc2[nH]c3c(c2c1)CCCC3)Nc1ccccc1Cl	inactive: -19.6%	
Cc1ccc(-c2cc(C(=O)N/N=C/C=C/c3ccccc3)n[nH]2)s1	inactive: -27.7%	
CC(C)NC(=O)NC(=O)COC(=O)/C=C/c1ccccc1[N+](=O)[O-]		inconclusive: 29.1 µM [activator, partial curve, poor fit]
Cc1[nH]n(-c2cccc(Cl)c2)c(=O)c1C=NCC(C)C		inconclusive: 18.3 µM [activator, partial curve]
CCCOc1ccc(-c2nnc(-c3ccco3)o2)cc1		inconclusive: 0.366 µM [activator, full curve]
Cc1ccc(S(=O)(=O)N(C(=O)c2ccncc2)c2ccc(OC(=O)c3ccncc3)cc2)cc1	inactive: -12.1%	
COc1ccc(Nc2oc(-c3ccc(OC)cc3)nc2C#N)cc1		inconclusive: 3.26 µM [activator, full curve]
O=C(Nc1cc(-c2nc3ncccc3o2)ccc1Cl)c1ccco1	inactive: -14.8%	
C=CCN(CC=C)S(=O)(=O)c1ccc(NC(=S)NC(=O)c2ccco2)cc1		inconclusive: 25.9 µM [inhibitor, single point]
CC(C)Cc1ccc(C(C)NC(=O)c2ccc(=O)[nH]c2)cc1 (stereo unspecified)		inconclusive: 29.1 µM [inhibitor, single point]
COc1ccc(CNC(=O)[C@@H](NC(=O)C2CCN(C(=O)[C@@H](N)CCSC)CC2)C(C)C)cc1	inactive: 26.6%	
Cc1ccc(S(=O)(=O)N(CC(=O)NCc2ccco2)C2CCCCC2)cc1	inactive: -22.1%	
COc1cc2c(c(OC)c1OC)-c1ccc(NC(=O)c3ccccc3)c(=O)cc1[C@@H](NC(C)=O)CC2		inconclusive: 5.8 µM [inhibitor, full curve]
CN(C)CCN(C(=O)c1ccc(Br)s1)c1nc2cc3c(cc2s1)OCCO3		inconclusive: 29.1 µM [activator, single point]
CC(C)(C)NC(=O)COc1coc(CN2CCN(C(=O)c3ccco3)CC2)cc1=O	inactive: -1.85%	
NC(=O)Nc1ccc(Oc2c(F)c(F)c(F)c(F)c2F)cc1		inconclusive: 1.26 µM [inhibitor, single point]
